Measurements taken from patent US20250241889A1, “FORTIFIED WATER” (Lovaness Limited, priority 2021, published 2025).

Assay: Blind sensorial perception testing of catechin, epicatechin and gallocatechin fortified water (Example 5)
Conditions: for Colour Rating (score) / Odour Rating (score) / Taste Rating (score): 10-point scale, 10 no differences vs pure water, 0 intolerable changes

Oc1cc(O)c2c(c1)O[C@H](c1cc(O)c(O)c(O)c1)[C@@H](O)C2 [Gallocatechin, gallocatechin]
Colour Rating (descriptor) (0.05 mg/ml in deionized water): No colour
Odour Rating (descriptor) (0.05 mg/ml in deionized water): No odour
Taste Rating (descriptor) (0.05 mg/ml in deionized water): No taste
Colour Rating (score) (0.05 mg/ml): (10.0)
Odour Rating (score) (0.05 mg/ml): (10.0)
Taste Rating (score) (0.05 mg/ml): (10.0)
Colour Rating (descriptor) (0.1 mg/ml in deionized water): No colour
Odour Rating (descriptor) (0.1 mg/ml in deionized water): No odour
Taste Rating (descriptor) (0.1 mg/ml in deionized water): No taste
Colour Rating (score) (0.1 mg/ml): (10.0)
Odour Rating (score) (0.1 mg/ml): (10.0)
Taste Rating (score) (0.1 mg/ml): (10.0)
Colour Rating (descriptor) (0.5 mg/ml in deionized water): No colour
Odour Rating (descriptor) (0.5 mg/ml in deionized water): No odour
Taste Rating (descriptor) (0.5 mg/ml in deionized water): No taste
Colour Rating (score) (0.5 mg/ml): (10.0)
Odour Rating (score) (0.5 mg/ml): (10.0)
Taste Rating (score) (0.5 mg/ml): (10.0)
Colour Rating (descriptor) (1.0 mg/ml in deionized water): No colour
Odour Rating (descriptor) (1.0 mg/ml in deionized water): No odour
Taste Rating (descriptor) (1.0 mg/ml in deionized water): Light biter
Colour Rating (score) (1.0 mg/ml): (10.0)
Odour Rating (score) (1.0 mg/ml): (10.0)
Taste Rating (score) (1.0 mg/ml): (8.0)
Colour Rating (descriptor) (2.0 mg/ml in deionized water): No colour
Odour Rating (descriptor) (2.0 mg/ml in deionized water): No odour
Taste Rating (descriptor) (2.0 mg/ml in deionized water): Bitter
Colour Rating (score) (2.0 mg/ml): (10.0)
Odour Rating (score) (2.0 mg/ml): (10.0)
Taste Rating (score) (2.0 mg/ml): (6.0)
Difference between fortified water and control (pure) water, summary of blind testing (0.05-2.0 mg/ml): Difference in taste only becomes discernible at higher concentrations
